Literature values as cited in US20220259302A1, “METHODS AND COMPOSITIONS FOR THE IMPROVEMENT OF LYSOSOMAL FUNCTION AND TREATMENT OF NEURODEGENERATIVE DISEASE” (VANDERBILT UNIVERSITY, priority 2017, published 2022).
At least one structure is not confirmed: it was looked up by name or label, or the drawing left a doubt.

System: AD mouse model
Details: cited from earlier work

For `CO[C@H]1C[C@@H]2CC[C@@H](C)[C@@](O)(O2)C(=O)C(=O)N2CCCC[C@H]2C(=O)O[C@H]([C@H](C)C[C@@H]2CC[C@@H](O)[C@H](OC)C2)CC(=O)[C@H](C)/C=C(\C)[C@@H](O)[C@@H](OC)C(=O)[C@H](C)C[C@H](C)/C=C/C=C/C=C/1C` [rapamycin], the behavior is given as “some behavioral improvement” and the “clearance of plaques or tangles” value is given as “no difference in clearance of plaques or tangles”.
